Experimental data reported in the supplement of paper PMC7661543.
± gives the standard deviation of the averaged measurements. Differences between knockout arms are mostly noise.

Tested on: ZR-75-1
Test: relative cell number vs DMSO control (72 h) (% of DMSO); higher = less growth inhibition (more cells)
Experimental: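 QMAP-Seq: a pool of 5 breast cancer cell lines (ZR-75-1, SKBR3, HCC-38, MDA-MB-231, BT-20), each carrying 12 doxycycline-inducible Cas9 sgRNA perturbations (11 knockouts plus non-targeting sgNT), was treated with compounds for 72 h at four 10-fold doses (10 nM-10 uM or 1 nM-1 uM range). Barcodes were amplified and sequenced, and cell number was interpolated from 293T spike-in standard curves. The result is expressed as % of the median of DMSO wells. Two biological replicates.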

[1] = sgRNA knockout: sgATF3, 1000 nM
[2] = sgRNA knockout: sgATF4, 1000 nM
[3] = sgRNA knockout: sgATF6, 1000 nM
[4] = sgRNA knockout: sgATG7, 1000 nM
[5] = sgRNA knockout: sgERN1, 1000 nM
[6] = sgRNA knockout: sgHSF2, 1000 nM
[7] = sgRNA knockout: sgNFE2L2, 10 nM
[8] = sgRNA knockout: sgNFE2L2, 100 nM
[9] = sgRNA knockout: sgNFE2L2, 1000 nM
[10] = sgRNA knockout: sgSLC35F2, 1 nM
[11] = sgRNA knockout: sgSLC35F2, 10 nM
[12] = sgRNA knockout: sgSLC35F2, 100 nM
[13] = sgRNA knockout: sgSLC35F2, 1000 nM
[14] = sgRNA knockout: sgXBP1, 1000 nM
[15] = sgRNA knockout: sgATF3, 10000 nM
[16] = sgRNA knockout: sgATF4, 10000 nM
[17] = sgRNA knockout: sgATF6, 10000 nM
[18] = sgRNA knockout: sgATG7, 10000 nM
[19] = sgRNA knockout: sgERN1, 10000 nM
[20] = sgRNA knockout: sgHSF2, 10000 nM
[21] = sgRNA knockout: sgNFE2L2, 10000 nM
[22] = sgRNA knockout: sgSLC35F2, 10000 nM
[23] = sgRNA knockout: sgXBP1, 10000 nM

## CN1CCN(c2ccc(C(=O)Nc3n[nH]c4ccc(Cc5cc(F)cc(F)c5)cc34)c(NC3CCOCC3)c2)CC1 [Entrectinib]
sgRNA knockout: sgATF3, 1 nM
  relative cell number: 96.1 ± 36
sgRNA knockout: sgATF3, 10 nM
  relative cell number: 130 ± 40
sgRNA knockout: sgATF3, 100 nM
  relative cell number: 102 ± 2.4
[1]
  relative cell number: 95.4 ± 25
sgRNA knockout: sgATF4, 1 nM
  relative cell number: 104 ± 44
sgRNA knockout: sgATF4, 10 nM
  relative cell number: 141 ± 40
sgRNA knockout: sgATF4, 100 nM
  relative cell number: 78.5 ± 25
[2]
  relative cell number: 55 ± 8.1
sgRNA knockout: sgATF6, 1 nM
  relative cell number: 123 ± 19
sgRNA knockout: sgATF6, 10 nM
  relative cell number: 83.4 ± 28
sgRNA knockout: sgATF6, 100 nM
  relative cell number: 111 ± 52
[3]
  relative cell number: 94.9 ± 6
sgRNA knockout: sgATG7, 1 nM
  relative cell number: 77.1 ± 21
sgRNA knockout: sgATG7, 10 nM
  relative cell number: 105 ± 17
sgRNA knockout: sgATG7, 100 nM
  relative cell number: 74.4 ± 19
[4]
  relative cell number: 75.5 ± 3.1
sgRNA knockout: sgERN1, 1 nM
  relative cell number: 82.7 ± 4.3
sgRNA knockout: sgERN1, 10 nM
  relative cell number: 86.7 ± 6.3
sgRNA knockout: sgERN1, 100 nM
  relative cell number: 96.8 ± 9.9
[5]
  relative cell number: 71.6 ± 1.2
sgRNA knockout: sgHSF2, 1 nM
  relative cell number: 95.3 ± 21
sgRNA knockout: sgHSF2, 10 nM
  relative cell number: 91.3 ± 9.5
sgRNA knockout: sgHSF2, 100 nM
  relative cell number: 70.8 ± 4.6
[6]
  relative cell number: 76.4 ± 24
sgRNA knockout: sgNFE2L2, 1 nM
  relative cell number: 71.4 ± 7.8
[7]
  relative cell number: 111.2 ± 0.68
[8]
  relative cell number: 96.7 ± 18
[9]
  relative cell number: 93.6 ± 3.6
[10]
  relative cell number: 86.5 ± 67
[11]
  relative cell number: 91.2 ± 10
[12]
  relative cell number: 148 ± 70
[13]
  relative cell number: 125 ± 18
sgRNA knockout: sgXBP1, 1 nM
  relative cell number: 84.6 ± 8.3
sgRNA knockout: sgXBP1, 10 nM
  relative cell number: 84.1 ± 3.3
sgRNA knockout: sgXBP1, 100 nM
  relative cell number: 79.4 ± 14
[14]
  relative cell number: 81.8 ± 9

## CCOC(=O)[C@@]1(CCCCCCOc2ccc(Cl)cc2)CO1 [Etomoxir]
sgRNA knockout: sgATF3, 10 nM
  relative cell number: 90.4 ± 25
sgRNA knockout: sgATF3, 100 nM
  relative cell number: 108 ± 8.8
[1]
  relative cell number: 91.7 ± 20
[15]
  relative cell number: 73.1 ± 13
sgRNA knockout: sgATF4, 10 nM
  relative cell number: 107 ± 38
sgRNA knockout: sgATF4, 100 nM
  relative cell number: 137 ± 27
[2]
  relative cell number: 102 ± 8.5
[16]
  relative cell number: 75.2 ± 14
sgRNA knockout: sgATF6, 10 nM
  relative cell number: 92.7 ± 33
sgRNA knockout: sgATF6, 100 nM
  relative cell number: 83.5 ± 19
[3]
  relative cell number: 80 ± 3
[17]
  relative cell number: 77 ± 6.8
sgRNA knockout: sgATG7, 10 nM
  relative cell number: 99 ± 31
sgRNA knockout: sgATG7, 100 nM
  relative cell number: 78.5 ± 33
[4]
  relative cell number: 68.4 ± 24
[18]
  relative cell number: 73.79 ± 0.66
sgRNA knockout: sgERN1, 10 nM
  relative cell number: 82.8 ± 14
sgRNA knockout: sgERN1, 100 nM
  relative cell number: 105 ± 44
[5]
  relative cell number: 110 ± 5.2
[19]
  relative cell number: 63.3 ± 18
sgRNA knockout: sgHSF2, 10 nM
  relative cell number: 98.4 ± 6
sgRNA knockout: sgHSF2, 100 nM
  relative cell number: 82.4 ± 12
[6]
  relative cell number: 81 ± 18
[20]
  relative cell number: 63.5 ± 0.79
[7]
  relative cell number: 95.6 ± 7.3
[8]
  relative cell number: 108 ± 22
[9]
  relative cell number: 98.7 ± 19
[21]
  relative cell number: 59.6 ± 20
[11]
  relative cell number: 108 ± 5.8
[12]
  relative cell number: 65.6 ± 7.4
[13]
  relative cell number: 71.6 ± 8
[22]
  relative cell number: 53.38 ± 0.38
sgRNA knockout: sgXBP1, 10 nM
  relative cell number: 89.6 ± 7.7
sgRNA knockout: sgXBP1, 100 nM
  relative cell number: 103 ± 11
[14]
  relative cell number: 111.59 ± 0.061
[23]
  relative cell number: 54.6 ± 16

## COc1cc([C@@H]2c3cc4c(cc3[C@@H](O[C@@H]3O[C@@H]5CO[C@@H](C)O[C@H]5[C@H](O)[C@H]3O)[C@H]3COC(=O)[C@H]23)OCO4)cc(OC)c1O [Etoposide]
sgRNA knockout: sgATF3, 10 nM
  relative cell number: 62.8 ± 25
sgRNA knockout: sgATF3, 100 nM
  relative cell number: 74.4 ± 27
[1]
  relative cell number: 65.6 ± 18
[15]
  relative cell number: 45.9 ± 18
sgRNA knockout: sgATF4, 10 nM
  relative cell number: 61.4 ± 8.2
sgRNA knockout: sgATF4, 100 nM
  relative cell number: 77 ± 7.9
[2]
  relative cell number: 62.8 ± 4.2
[16]
  relative cell number: 40 ± 10
sgRNA knockout: sgATF6, 10 nM
  relative cell number: 82.1 ± 3.1
sgRNA knockout: sgATF6, 100 nM
  relative cell number: 64.6 ± 10
[3]
  relative cell number: 44.4 ± 30
[17]
  relative cell number: 25.6 ± 12
sgRNA knockout: sgATG7, 10 nM
  relative cell number: 74.9 ± 27
sgRNA knockout: sgATG7, 100 nM
  relative cell number: 66.4 ± 12
[4]
  relative cell number: 41 ± 13
[18]
  relative cell number: 39 ± 14
sgRNA knockout: sgERN1, 10 nM
  relative cell number: 57 ± 1.7
sgRNA knockout: sgERN1, 100 nM
  relative cell number: 69.7 ± 15
[5]
  relative cell number: 60.1 ± 7.5
[19]
  relative cell number: 37.5 ± 2.2
sgRNA knockout: sgHSF2, 10 nM
  relative cell number: 85 ± 35
sgRNA knockout: sgHSF2, 100 nM
  relative cell number: 67.5 ± 9.1
[6]
  relative cell number: 59 ± 1.9
[20]
  relative cell number: 36.9 ± 2.1
[7]
  relative cell number: 70.2 ± 12
[8]
  relative cell number: 62.9 ± 0.72
[9]
  relative cell number: 40.3 ± 4
[21]
  relative cell number: 25.3 ± 7.2
[11]
  relative cell number: 45.3 ± 21
[12]
  relative cell number: 71.8 ± 52
[13]
  relative cell number: 31.2 ± 26
[22]
  relative cell number: 33 ± 9.8
sgRNA knockout: sgXBP1, 10 nM
  relative cell number: 56.6 ± 3
sgRNA knockout: sgXBP1, 100 nM
  relative cell number: 65.7 ± 1.3
[14]
  relative cell number: 50.2 ± 0.55
[23]
  relative cell number: 34.1 ± 1.2

## CO[C@H]1C[C@@H]2CC[C@@H](C)[C@@](O)(O2)C(=O)C(=O)N2CCCC[C@H]2C(=O)O[C@H]([C@H](C)C[C@@H]2CC[C@@H](OCCO)[C@H](OC)C2)CC(=O)[C@H](C)/C=C(\C)[C@@H](O)[C@@H](OC)C(=O)[C@H](C)C[C@H](C)/C=C/C=C/C=C/1C [Everolimus]
sgRNA knockout: sgATF3, 1 nM
  relative cell number: 74 ± 19
sgRNA knockout: sgATF3, 10 nM
  relative cell number: 70.2 ± 40
sgRNA knockout: sgATF3, 100 nM
  relative cell number: 67.7 ± 14
[1]
  relative cell number: 75.2 ± 2.2
sgRNA knockout: sgATF4, 1 nM
  relative cell number: 84.4 ± 21
sgRNA knockout: sgATF4, 10 nM
  relative cell number: 56.8 ± 9.8
sgRNA knockout: sgATF4, 100 nM
  relative cell number: 61.5 ± 29
[2]
  relative cell number: 77.1 ± 2.5
sgRNA knockout: sgATF6, 1 nM
  relative cell number: 72.3 ± 21
sgRNA knockout: sgATF6, 10 nM
  relative cell number: 54.9 ± 19
sgRNA knockout: sgATF6, 100 nM
  relative cell number: 64.2 ± 9.9
[3]
  relative cell number: 81.3 ± 36
sgRNA knockout: sgATG7, 1 nM
  relative cell number: 82.8 ± 14
sgRNA knockout: sgATG7, 10 nM
  relative cell number: 74 ± 7.5
sgRNA knockout: sgATG7, 100 nM
  relative cell number: 50.9 ± 0.55
[4]
  relative cell number: 70.3 ± 18
sgRNA knockout: sgERN1, 1 nM
  relative cell number: 66.7 ± 6.3
sgRNA knockout: sgERN1, 10 nM
  relative cell number: 60.4 ± 9.3
sgRNA knockout: sgERN1, 100 nM
  relative cell number: 67.4 ± 7.4
[5]
  relative cell number: 76.4 ± 3.2
sgRNA knockout: sgHSF2, 1 nM
  relative cell number: 70.9 ± 22
sgRNA knockout: sgHSF2, 10 nM
  relative cell number: 72.6 ± 10
sgRNA knockout: sgHSF2, 100 nM
  relative cell number: 54.9 ± 10
[6]
  relative cell number: 58.4 ± 13
sgRNA knockout: sgNFE2L2, 1 nM
  relative cell number: 82 ± 48
[7]
  relative cell number: 73.1 ± 7.9
[8]
  relative cell number: 55.3 ± 9.4
[9]
  relative cell number: 75.42 ± 0.18
[10]
  relative cell number: 82.8 ± 44
[11]
  relative cell number: 37 ± 33
[12]
  relative cell number: 79.2 ± 6.6
[13]
  relative cell number: 41.6 ± 1.5
sgRNA knockout: sgXBP1, 1 nM
  relative cell number: 74.2 ± 28
sgRNA knockout: sgXBP1, 10 nM
  relative cell number: 53.4 ± 9
sgRNA knockout: sgXBP1, 100 nM
  relative cell number: 66 ± 12
[14]
  relative cell number: 76.6 ± 14
